This assay has as its target T1, Arabidopsis thaliana Bax Inhibitor-1 (AtBI-1), full length, V5-tagged (Arabidopsis thaliana) (UniProt Q9LD45).
T1 sequence: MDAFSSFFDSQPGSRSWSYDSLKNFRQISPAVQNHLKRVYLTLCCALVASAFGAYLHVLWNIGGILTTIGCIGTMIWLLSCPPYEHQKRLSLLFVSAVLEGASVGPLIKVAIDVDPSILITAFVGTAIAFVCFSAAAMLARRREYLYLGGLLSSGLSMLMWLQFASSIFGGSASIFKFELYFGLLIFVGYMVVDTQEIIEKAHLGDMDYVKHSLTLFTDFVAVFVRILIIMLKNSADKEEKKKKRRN
The assay can be described thus: co-IP; total protein extracts of yeast W303 induced for 6 h to express PAP and V5-tagged AtBI-1 or AtBI-1∆C; V5 monoclonal antibody, protein A-Sepharose beads; blots with affinity purified PAP antibody and V5 antibody.

No constants are given. Whether binding was seen depends on the method and setting. In cells and extracts the contact can be indirect. A result given as binding can be weak or reduced; the word gives no strength. Tags and fused reporters may be left off the sequences shown.

Consider “pokeweed antiviral protein (PAP), precursor form (Phytolacca americana)”, for which the binding result is “binds”.

In the case of “pokeweed antiviral protein (PAP), mature form (Phytolacca americana)”, the binding result is “no binding”.

The record behind these values is PMC5354556.
